In US8981084B2, “Oxadiazole HDAC inhibitors” (Tempero Pharmaceuticals, Inc., priority 2011, dated 2015):
Some results were stated once for a whole list of compounds, not compound by compound.

The chains behind the UniProt entries cited, without tags or fusion partners. Residues count along the entry.
UniProt Q9UKV0, 1-1066 isoform Q9UKV0-5: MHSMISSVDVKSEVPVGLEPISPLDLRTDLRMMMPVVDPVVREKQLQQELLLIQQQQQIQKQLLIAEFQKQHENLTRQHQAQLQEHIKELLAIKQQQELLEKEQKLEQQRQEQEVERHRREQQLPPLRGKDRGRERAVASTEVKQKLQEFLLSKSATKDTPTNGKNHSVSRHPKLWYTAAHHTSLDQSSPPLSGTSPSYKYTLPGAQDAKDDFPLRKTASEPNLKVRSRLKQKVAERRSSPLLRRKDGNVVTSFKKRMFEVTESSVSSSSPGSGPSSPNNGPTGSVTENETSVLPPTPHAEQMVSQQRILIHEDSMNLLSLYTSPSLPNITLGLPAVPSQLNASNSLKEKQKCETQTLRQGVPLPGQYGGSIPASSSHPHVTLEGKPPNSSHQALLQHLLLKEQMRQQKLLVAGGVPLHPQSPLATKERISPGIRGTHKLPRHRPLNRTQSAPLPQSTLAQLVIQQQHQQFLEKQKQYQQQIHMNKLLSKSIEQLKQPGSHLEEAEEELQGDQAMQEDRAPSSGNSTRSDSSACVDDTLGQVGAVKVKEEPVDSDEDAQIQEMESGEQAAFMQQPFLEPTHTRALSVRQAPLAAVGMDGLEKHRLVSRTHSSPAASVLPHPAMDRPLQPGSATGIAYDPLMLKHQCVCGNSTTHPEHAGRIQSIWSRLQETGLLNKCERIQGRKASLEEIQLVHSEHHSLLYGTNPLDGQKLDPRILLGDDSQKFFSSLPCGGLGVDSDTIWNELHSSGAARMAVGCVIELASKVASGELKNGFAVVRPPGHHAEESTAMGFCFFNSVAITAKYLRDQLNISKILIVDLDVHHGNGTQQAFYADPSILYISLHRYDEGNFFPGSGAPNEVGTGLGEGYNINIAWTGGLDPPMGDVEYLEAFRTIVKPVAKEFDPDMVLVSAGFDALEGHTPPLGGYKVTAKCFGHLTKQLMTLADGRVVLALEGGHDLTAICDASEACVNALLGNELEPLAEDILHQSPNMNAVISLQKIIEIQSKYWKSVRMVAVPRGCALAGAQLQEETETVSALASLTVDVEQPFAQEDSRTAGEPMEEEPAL

Molecular target: T1, Recombinant HDAC9 isoform 4 (Homo sapiens, UniProt Q9UKV0)
T1 construct: purchased BPS Bioscience
Experiment: Histone Deacetylase 9 (HDAC9) inhibition assay, fluorogenic substrate
Assay type: biochemical
Details: mean of a minimum of 2 experiments; 11 point 3x dilution series from 100 uM; Class IIa HDAC-specific fluorogenic substrate 4.5 uM
From the text: Histone Deacetylase 9 (HDAC9) Inhibition Assay:
Novel histone deacetylase 9 (HDAC9) inhibitors were characterized in an in vitro biochemical functional assay. The assay measures the increased fluorescent signal due to deacetylation, by HDAC9, of a fluorogenic substrate. The commercial available substrate is Class IIa HDAC-specific and contains an acetylated lysine residue and would releases the fluorescent signal upon trypsin cleavage after deacetylation.
Specifically, test compounds diluted to various concentrations in 100% DMSO are first dispensed into 384-well assay plates. Recombinant HDAC9 isoform 4 (purchased from BPS Bioscience) in complete assay buffer (50 mM Tris-HCl, pH 8.0, 137 mM NaCl, 2.7 mM KCl, 1 mM MgCl2, 0.05% BSA & 0.005% Tween 20) were then added to each well (5 uL/well) using Multidrop Combi (Thermo Scientific), followed by 5 uL/well substrate (purchased from BPS Bioscience, 4.5 uM final). After 45 minutes incubation at room temperature, 10 uL 2× developer solution (assay buffer with 40 uM Trypsin and 20 uM Trichostatin A) was added. The plates were then incubated 1 hour at room temperature before reading in fluorescent intensity mode at 450 nm in an Envision (Perkin Elmer) plate reader. Percent Inhibition of HDAC9 activity by compounds in each test wells was calculated by normalizing to fluorescent signal in control wells containing DMSO only. The pIC50s value of test compounds were calculated from non-linear curve fitting, using ActivityBase5 data analysis tool (IDBS), from 11 point 3× dilution series starting from 100 uM final compound concentration.
For dose response experiments, normalized data were fit by ABASE/XC50 using the equation y=a+(b−a)/(1+(10^×/10^c)^d), where a is the minimum % activity, b is the maximum % activity, c is the pIC50, d is the Hill slope.
The pIC50s are averaged to determine a mean value, for a minimum of 2 experiments. […] For instance, the compounds of Examples 1, 38, 61 and 79 inhibited HDAC9 in the above method with a mean pIC50 of >6.

Row | SMILES | mean pIC50, inhibition of HDAC9
1 | Cc1ccc(N2CCN(C(=O)c3cccc(-c4noc(C(F)(F)F)n4)c3)CC2)cc1C [Example 2, (4-(3,4-dimethylphenyl)piperazin-1-yl)(3-(5-(trifluoromethyl)-1,2,4-oxadiazol-3-yl)phenyl)methanone] | greater than 4.0
2 | N#Cc1ccc(N2CCCN(C(=O)c3cccc(-c4noc(C(F)(F)F)n4)c3)CC2)nc1 [Example 57, 6-(4-(3-(5-(Trifluoromethyl)-1,2,4-oxadiazol-3-yl)benzoyl)-1,4-diazepan-1-yl)nicotinonitrile] | greater than 4.0
3 | O=C(c1cccc(-c2noc(C(F)(F)F)n2)c1)N1CCN(c2nccc(-c3ccccc3)n2)CC1 [Example 72, (4-(4-Phenylpyrimidin-2-yl)piperazin-1-yl)(3-(5-(trifluoromethyl)-1,2,4-oxadiazol-3-yl)phenyl)methanone] | greater than 4.0
4 | O=C(c1cccc(-c2noc(C(F)(F)F)n2)c1)N1CCN(c2ccccc2F)CC1 [Example 73, (4-(2-Fluorophenyl)piperazin-1-yl)(3-(5-(trifluoromethyl)-1,2,4-oxadiazol-3-yl)phenyl)methanone] | greater than 4.0
5 | COc1ccc(N2CCN(C(=O)c3cccc(-c4noc(C(F)(F)F)n4)c3)CC2)c(OC)c1 [Example 9, (4-(2,4-dimethoxyphenyl)piperazin-1-yl)(3-(5-(trifluoromethyl)-1,2,4-oxadiazol-3-yl)phenyl)methanone] | greater than 4.0
6 | O=C(c1cccc(-c2noc(C(F)(F)F)n2)c1)N1CCN(Cc2ccc(Cl)cc2)CC1 [Example 30, (4-(4-chlorobenzyl)piperazin-1-yl)(3-(5-(trifluoromethyl)-1,2,4-oxadiazol-3-yl)phenyl)methanone] | greater than 4.0
7 | O=C(c1cccc(-c2noc(C(F)(F)F)n2)c1)N1CCN(c2ccncc2)CC1 [Example 24, (4-(pyridin-4-yl)piperazin-1-yl)(3-(5-(trifluoromethyl)-1,2,4-oxadiazol-3-yl)phenyl)methanone] | greater than 4.0
8 | CC1CN(C(=O)c2cccc(-c3noc(C(F)(F)F)n3)c2)CCN1c1ccc(C#N)cn1 (stereo not shown) [Example 39, 6-(2-Methyl-4-(3-(5-(trifluoromethyl)-1,2,4-oxadiazol-3-yl)benzoyl)piperazin-1-yl)nicotinonitrile] | greater than 4.0
9 | O=C(c1cccc(-c2noc(C(F)(F)F)n2)c1)N1CC(Cc2nc(-c3ccc(F)cc3)cs2)C1 [Example 79, (3-((4-(4-Fluorophenyl)thiazol-2-yl)methyl)azetidin-1-yl)(3-(5-(trifluoromethyl)-1,2,4-oxadiazol-3-yl)phenyl)methanone] | greater than 4.0
10 | O=C(c1cccc(-c2noc(C(F)(F)F)n2)c1)N1CCN(c2ccccn2)CC1 [Example 13, (4-(pyridin-2-yl)piperazin-1-yl)(3-(5-(trifluoromethyl)-1,2,4-oxadiazol-3-yl)phenyl)methanone] | greater than 4.0
11 | CC1(C)CN(c2ccc(C#N)cn2)CCN1C(=O)c1cccc(-c2noc(C(F)(F)F)n2)c1 [Example 56, 6-(3,3-Dimethyl-4-(3-(5-(trifluoromethyl)-1,2,4-oxadiazol-3-yl)benzoyl)piperazin-1-yl)nicotinonitrile] | greater than 4.0
12 | O=C(c1cccc(-c2noc(C(F)(F)F)n2)c1)N1CCN(c2ccc(Cl)c(Cl)c2)CC1 [Example 3, (4-(3,4-dichlorophenyl)piperazin-1-yl)(3-(5-(trifluoromethyl)-1,2,4-oxadiazol-3-yl)phenyl)methanone] | greater than 4.0
13 | O=C(c1cccc(-c2noc(C(F)(F)F)n2)c1)N1CCN(c2nc3ccccc3[nH]2)CC1 [Example 67, (4-(1H-Benzo[d]imidazol-2-yl)piperazin-1-yl)(3-(5-(trifluoromethyl)-1,2,4-oxadiazol-3-yl)phenyl)methanone] | greater than 4.0
14 | O=C(c1cccc(-c2noc(C(F)(F)F)n2)c1)N1CCCN(c2ccc(C(F)(F)F)cn2)CC1 [Example 1, (3-(5-(Trifluoromethyl)-1,2,4-oxadiazol-3-yl)phenyl)(4-(5-(trifluoromethyl)pyridin-2-yl)-1,4-diazepan-1-yl)methanone] | greater than 4.0
15 | O=C(c1cccc(-c2noc(C(F)(F)F)n2)c1)N1CCN(Cc2coc(-c3ccc(F)cc3)n2)CC1 [Example 83, (4-((2-(4-Fluorophenyl)oxazol-4-yl)methyl)piperazin-1-yl)(3-(5-(trifluoromethyl)-1,2,4-oxadiazol-3-yl)phenyl)methanone] | greater than 4.0
16 | CN(C)CCCN1CCN(C(=O)c2cccc(-c3noc(C(F)(F)F)n3)c2)CC1 [Example 7, (4-(3-(dimethylamino)propyl)piperazin-1-yl)(3-(5-(trifluoromethyl)-1,2,4-oxadiazol-3-yl)phenyl)methanone] | greater than 4.0
17 | N#Cc1ccc(N2CCN(C(=O)c3cccc(-c4noc(C(F)(F)F)n4)c3)CC2)nc1 [Example 25, 6-(4-(3-(5-(trifluoromethyl)-1,2,4-oxadiazol-3-yl)benzoyl)piperazin-1-yl)nicotinonitrile] | greater than 4.0
18 | O=C(c1cccc(-c2noc(C(F)(F)F)n2)c1)N1CCN(c2ncccn2)CC1 [Example 77, (4-(Pyrimidin-2-yl)piperazin-1-yl)(3-(5-(trifluoromethyl)-1,2,4-oxadiazol-3-yl)phenyl)methanone] | greater than 4.0
19 | N#Cc1ccc(N2CCN(C(=O)c3cccc(-c4noc(C(F)(F)F)n4)c3)CC2)cc1 [Example 38, 4-(4-(3-(5-(Trifluoromethyl)-1,2,4-oxadiazol-3-yl)benzoyl)piperazin-1-yl)benzonitrile] | greater than 4.0
20 | O=C(c1cccc(-c2noc(C(F)(F)F)n2)c1)N1CCN(Cc2ccncc2)CC1 [Example 18, (4-(pyridin-4-ylmethyl)piperazin-1-yl)(3-(5-(trifluoromethyl)-1,2,4-oxadiazol-3-yl)phenyl)methanone] | greater than 4.0
21 | CC1CN(c2ccc(C#N)cn2)CCN1C(=O)CCCc1noc(C(F)(F)F)n1 (stereo not shown) [Example 53, 6-(3-Methyl-4-(4-(5-(trifluoromethyl)-1,2,4-oxadiazol-3-yl)butanoyl)piperazin-1-yl)nicotinonitrile] | greater than 4.0
22 | O=C(c1cccc(-c2noc(C(F)(F)F)n2)c1)N1CCN(CCc2ccccc2)CC1 [Example 11, (4-phenethylpiperazin-1-yl)(3-(5-(trifluoromethyl)-1,2,4-oxadiazol-3-yl)phenyl)methanone] | greater than 4.0
23 | O=C(c1cccc(-c2noc(C(F)(F)F)n2)c1)N1CCN(c2cncnc2)CC1 [Example 70, (4-(Pyrimidin-5-yl)piperazin-1-yl)(3-(5-(trifluoromethyl)-1,2,4-oxadiazol-3-yl)phenyl)methanone] | greater than 4.0
24 | O=C(CN1CCN(C(=O)c2cccc(-c3noc(C(F)(F)F)n3)c2)CC1)N1CCCC1 [Example 14, 1-(pyrrolidin-1-yl)-2-(4-(3-(5-(trifluoromethyl)-1,2,4-oxadiazol-3-yl)benzoyl)piperazin-1-yl)ethanone] | greater than 4.0
25 | O=C(c1cccc(-c2noc(C(F)(F)F)n2)c1)N1CCN(C(=O)c2csc(-c3ccccc3)n2)CC1 [Example 84, (2-Phenylthiazol-4-yl)(4-(3-(5-(trifluoromethyl)-1,2,4-oxadiazol-3-yl)benzoyl)piperazin-1-yl)methanone] | greater than 4.0
26 | O=C(c1cccc(-c2noc(C(F)(F)F)n2)c1)N1CCN(C2Cc3ccccc3C2)CC1 [Example 66, (4-(2,3-Dihydro-1H-inden-2-yl)piperazin-1-yl)(3-(5-(trifluoromethyl)-1,2,4-oxadiazol-3-yl)phenyl)methanone] | greater than 4.0
27 | CC1CN(c2ccc(C#N)cn2)CCN1C(=O)CCCc1ccc(C(=O)C(F)(F)F)s1 (stereo not shown) [Example 65, 6-(3-Methyl-4-(4-(5-(2,2,2-trifluoroacetyl)thiophen-2-yl)butanoyl)piperazin-1-yl)nicotinonitrile] | greater than 4.0
28 | O=C(CN1CCN(C(=O)c2cccc(-c3noc(C(F)(F)F)n3)c2)CC1)N1CCOCC1 [Example 10, 1-morpholino-2-(4-(3-(5-(trifluoromethyl)-1,2,4-oxadiazol-3-yl)benzoyl)piperazin-1-yl)ethanone] | greater than 4.0
